Measurements as given in PubChem BioAssay AID1259415 (National Center for Advancing Translational Sciences (NCATS), 2018).
Among all 410,000 compounds or so, about 18,000 (4.4%) were called active. The shares of active, inactive and inconclusive entries below differ from those in the screen. Cut-off read from the data, not from the text of the source: active = activity change below about -60%; inconclusive = no clear call, values can overlap the other calls; inactive = above about -39%.

assay: qHTS Assay for inhibitors of the human cytomegalovirus (HCMV); conditions: HFF cells, HCMV-luciferase reporter, 72 h; at 57.5 µM; stronger effect = lower value
Method in brief: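 Two-dose cell screen: HFF monolayers treated with compounds and infected with luciferase-expressing HCMV at 1 PFU/cell, 72 h at 37C, then lysed for luciferase measurement.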
% is set by controls: 0 for no effect and ±100 for the full control effect.

Compound	activity change, negative = inhibition
O=C(CN1CCN(S(=O)(=O)c2ccc(Cl)cc2)CC1)Nc1ccc2c(c1)CCC2	inconclusive: -44.2%
C/C(=C\c1ccccc1)C1NC(=O)c2c(sc3c2CCCC3)N1 (configuration not stated)	inconclusive: -56.4%
O=C(COC(=O)Cc1ccc(Cl)c(Cl)c1)Nc1ccc2[nH]c(=O)[nH]c2c1	inactive: -8.42%
Cc1nc2cc(NS(=O)(=O)c3cccc4cccnc34)ccc2s1	inconclusive: -53.7%
CC(C)(C)N(Cc1ccccc1)C(=O)CN1C(=O)NC2(CCCCCC2)C1=O	active: -61.3%
Cc1cc(CN2CCCC(C(=O)Nc3ccc(-c4nc5ccccc5[nH]4)cc3)C2)n[nH]1 (configuration not stated)	inactive: -19.5%
CCOC(=O)c1cnc(N2CC2)nc1N	active: -68.4%
O=C1CC(c2ccc(F)cc2)SC(N(c2ccccc2)c2ccccc2)=N1 (configuration not stated)	inconclusive: -55.1%
COc1ccc(-c2coc3c(C(=O)NCc4ccco4)cccc23)c(C)c1	inconclusive: -43.4%
COC(=O)c1cn[nH]c1NC(=S)Nc1ccc(Cl)c(Cl)c1	inconclusive: -51.3%
Cn1c(SCC(=O)NNC(=O)c2ccccc2)nnc1C1CC1	inconclusive: -45.3%
CC(C)c1ccccc1OCC(=O)Nc1cc(S(=O)(=O)N2CCOCC2)ccc1N1CCCC1	inconclusive: -40.8%
CSc1nc2ccc(NC(=O)NC(=O)c3c(F)cccc3F)cc2s1	inactive: 11.4%
Cc1cc(NC(=O)/C=C/c2ccccc2Cl)no1	inactive: 40.4%
CCn1ncc(CN2CCN(Cc3cccc(OC)c3)C(CCO)C2)c1C (configuration not stated)	inconclusive: -48.2%
CCOc1ccc(C(=O)C2CCN(CC(=O)Nc3ccccc3N3CCOCC3)CC2)cc1	inconclusive: -44.6%
O=C(Nc1ccc(N2CCN(C(=O)c3ccccc3)CC2)c(Cl)c1)c1ncn[nH]1	inactive: -25.4%
CCn1c(OC)nc2c1c(=O)n(C)c(=O)n2C	inconclusive: -45.4%
COCCn1c(-c2ccccc2)nc2ccccc21	inactive: 22.8%
COc1ccc(NS(=O)(=O)c2ccc(N3CCCCS3(=O)=O)cc2)cc1Cl	inconclusive: -58.9%
Cc1cccc(-n2c(Cn3nc(C)c([N+](=O)[O-])c3C)n[nH]c2=S)c1	active: -98.3%
COCc1cc(C)nc(SCc2ccccc2Cl)c1C#N	inconclusive: -45.2%

Compound	activity change, negative = inhibition
O=C(NCc1ccco1)C1CCN(c2ccc(N3CCOCC3)nn2)CC1	inconclusive: -42.6%
CCOC(=O)N1CCN(C(=S)Nc2ccc3nc(N4CCN(CC)CC4)cc(C)c3c2)CC1	inconclusive: -43.1%
O=C(Nc1ccc(Oc2ccccc2)cc1)C1CCN(c2c3c(nc4ncnn24)CCC3)CC1	active: -101%
COc1ccc(NC(=O)CN2C(=O)COc3ccc(S(=O)(=O)N4CCCCC4)cc32)c(OC)c1	inactive: -29.1%
COc1ccc(Sc2nc(-c3ccccn3)ncc2OC)cc1	inconclusive: -46.6%
O=C(CSc1nnc(-c2ccco2)o1)N1c2ccccc2CCc2ccccc21	inconclusive: -46%
CC(=O)Nc1ccc(NC(=O)c2nc(S(=O)(=O)Cc3ccc(F)cc3)ncc2Cl)cc1	active: -99.8%
COC(=O)c1nc2n(n1)C(c1ccc([N+](=O)[O-])cc1)C(C(=O)Nc1ccc(Cl)cc1)=C(C)N2 (configuration not stated)	inactive: 5.33%
Cc1ccc(SCCC(=O)NNC(=O)c2ccccc2F)cc1	inactive: 78.6%
Cc1c(C(=O)NCc2ccc3c(c2)cc(C)n3C)cccc1[N+](=O)[O-]	inconclusive: -50.5%
O=C(O)c1ccc(CSc2nc3ccccc3c(=O)n2-c2ccccc2)cc1	inactive: 28%
CCOc1ccc(C(=O)CCC(=O)N2CCC(C(=O)OC)CC2)cc1	inconclusive: -40.5%
CCOc1ccc2c(c1)c(=O)c(C(=O)c1ccc3c(c1)OCO3)cn2Cc1ccc(F)cc1	inactive: 8.44%
O=C(Sc1cccc2cccnc12)c1ccccc1Br	active: -96.9%
Nc1ccn(C2OC(COC(=O)C34CC5CC(CC(C5)C3)C4)C(O)C2O)c(=O)n1 (configuration not stated)	active: -97.3%
CCCNC(=O)c1cc2c(c(-c3cccc(-c4ccccc4F)c3)n1)[C@@H](CCO)N(C(=O)CC1CC1)C2	inconclusive: -47.8%
Cc1cc(C)nc(N/N=C/c2cc3c(cc2[N+](=O)[O-])OCO3)n1	inconclusive: -54.3%
CCCn1c(SCC(=O)Nc2cc(S(=O)(=O)N3CCCCC3)ccc2C)n[nH]c1=O	inconclusive: -56.4%
CC(C)COc1cccc(C(=O)Nc2ccc(S(=O)(=O)N3CCOCC3)cc2)c1	inactive: -34.4%
CN1OC[C@@H]2CN(C(=O)C(C)(C)C)[C@H](c3ccc(-c4cc5ccccc5o4)cc3)C[C@@H]21	inactive: 10.7%
CC(=O)N1CCN(C(=O)c2ccc(Oc3ccccc3)cc2)CC1	inconclusive: -59.7%
COc1ccc(-n2c(C)c([N+](=O)[O-])c3ccc(O)c(CN4CCCCC4)c32)cc1	active: -72.8%

Compound	activity change, negative = inhibition
COc1cc2ccccc2cc1C(=O)N/N=C/c1ccc2c(c1)OCO2	inconclusive: -48.7%
C=CCOC(=O)C1C(=O)CC(C)(O)C(C(=O)OCC=C)C1c1ccc(N(C)C)cc1 (configuration not stated)	inconclusive: -48.1%
O=S1(=O)CCN2C(c3cccc4ccccc34)=CSC2=N1	inconclusive: -44.5%
O=C(O)CCCCOn1ccnc1	inconclusive: -44%
CSc1nnc(-c2ccco2)c(-c2ccco2)n1	inactive: 55.2%
COC(=O)c1ccc(OC(=O)c2ccccc2F)cc1	inconclusive: -44.2%
Cc1ccc(CNC(=O)Cc2ccc(-n3c(=O)[nH]c4ccsc4c3=O)cc2)cc1	active: -61.7%
CCCCNC(=O)c1nc2cc(C)c(C)cc2nc1-c1cccc(OC)c1	inactive: 18.9%
COc1cccc(/C=N/NC(=O)c2cccc3ccccc23)c1OC	inactive: 105%
COc1ccc(NC(=O)CCc2nc(-c3ccc(C)cc3)no2)cc1Cl	inactive: 3.21%
CC1CC(C)CN(C(=O)COC(=O)CCC(=O)c2cccs2)C1 (configuration not stated)	inconclusive: -44.9%
CN1CCN(NC(=O)/C=C/c2ccc(C(C)(C)C)cc2)CC1	inconclusive: -41.7%
CC1CCN(S(=O)(=O)c2ccc3[nH]cc(C(=O)NCCN4CCOCC4)c(=O)c3c2)CC1	inconclusive: -40.3%
O=C(O)c1ccccc1C(=O)Nc1ccc(-n2ccc(C(F)(F)F)n2)cc1	inactive: -0.167%
Nc1nnnn1CC(=O)N/N=C/c1ccc(-c2cccc(Cl)c2)o1	inconclusive: -53%
C=CCn1c(O)c(N=NC(=O)OCC)c2ccccc21	active: -64.3%
O=C(N/N=C/c1cccnc1)c1ccc(NC(=O)c2cccc(Cl)c2)cc1	inconclusive: -52.9%
CCCN1CCN(CCCNC(=O)c2cc3c(=O)n(CC)c4ccccc4c3s2)CC1	inconclusive: -55.9%
COc1ccc(C(=O)Nc2ccc(C(=O)c3ccccc3)cc2)cc1	inconclusive: -59.8%
CC(=O)Nc1ccc(-c2cc(NC(C)=O)n(-c3ccccc3)n2)cc1	inactive: -16%
COc1ccc(C(=O)NN(C)c2nc(C(F)(F)F)nc3ccccc23)cc1	active: -98.6%
CN(C(=O)CCn1c(=S)oc2ccccc21)C1CCCCC1	inconclusive: -47.6%

Compound	activity change, negative = inhibition
O=C(Nc1cccc(F)c1)N1CCCCCC1	inconclusive: -49.5%
COCc1cccc(-c2csc(C(O)c3ccccc3)n2)c1 (configuration not stated)	inactive: -20.7%
COc1ccc(OC)c(-c2nnc3n2N=C(c2ccc(OC)c(OC4CCOC4)c2)CS3)c1 (configuration not stated)	active: -75.3%
O=c1c2ccccc2nc2n1CCc1ccc(Br)cc1-2	inactive: -10.7%
CCOc1ccc(Oc2c(C)oc3cc(O)ccc3c2=O)cc1	inconclusive: -58.9%
Cc1ccc(-n2c(SCc3ccccc3F)nc3[nH]ncc3c2=O)cc1Cl	inconclusive: -55.8%
Cn1c2ccccc2c(=O)c2ccc(C#CC3(O)CCCCC3)cc21	inconclusive: -59%
CC(C)(C)c1ccc(C(=O)NCC(=O)N/N=C/c2ccccc2OCC(=O)O)cc1	inactive: 29.5%
CCCS(=O)(=O)NC(=O)C1(C)CCN(C(=O)c2cc(OC)c(OC)c(OC)c2)C1 (configuration not stated)	inconclusive: -45.4%
CCN(CC(=O)N1CCN(C)CC1)S(=O)(=O)c1ccc(Cl)cc1	inactive: 15.2%
CC1(C)Cc2ccccc2-c2nnc(C(F)(F)F)n21	inconclusive: -41%
COc1ccccc1-c1cc(-c2ccccc2)nc(SC(C(N)=O)c2ccccc2)c1C#N (configuration not stated)	inconclusive: -40.7%
Cn1ccnc1/C(=N\NC(=O)c1ccc(O)cc1)c1cccc([N+](=O)[O-])c1	inactive: -23.8%
CN(CC(=O)Nc1ccccc1Cl)CC(=O)N(C)c1c(N)n(Cc2ccccc2)c(=O)[nH]c1=O	inactive: -17.8%
CCOC(=O)c1nn(-c2cccc(OC)c2)c2nc(CC)c(C#N)c(=O)n12	inconclusive: -43.3%
Cc1ccc(S(=O)(=O)N2CCOCC2)cc1C(=O)Nc1cc(S(=O)(=O)N2CCCCC2)ccc1O	inconclusive: 0%
Cc1nc2ccccc2c(=O)n1/N=C/c1ccccn1	inconclusive: -45.5%
O=C(CSc1nnc(CNc2ccc(F)cc2)n1CC1CCCO1)N1CCOCC1 (configuration not stated)	active: -98.3%
CN(NC(=O)C(C)(C)C)c1nc(-c2ccccc2)nnc1C(F)(F)F	active: -62.8%
O=C(NC1CC1)c1c(O)c2ccccc2[nH]c1=O	inconclusive: -40.9%
O=C(N/N=C/c1ccc([N+](=O)[O-])o1)c1sc2ccccc2c1Cl	inconclusive: -42%

Reformatted: results already given
COc1ccc(-c2coc3c(C(=O)NCc4ccco4)cccc23)c(C)c1
  activity change, negative = inhibition: inconclusive: -43.4%
COC(=O)c1cn[nH]c1NC(=S)Nc1ccc(Cl)c(Cl)c1
  activity change, negative = inhibition: inconclusive: -51.3%
Cn1c(SCC(=O)NNC(=O)c2ccccc2)nnc1C1CC1
  activity change, negative = inhibition: inconclusive: -45.3%
